{"source": "PubChem BioAssay AID328", "about": "(DTP/NCI, 2004)", "test_system": "BDF1 mice, P388 leukemia ip, median survival T/C", "test": "NCI In Vivo Anticancer Drug Screen. Data for tumor model P388 Leukemia (intraperitoneal) in B6D2F1 (BDF1) mice", "conditions": "T/C endpoint: median survival time, schedule: Q01DX001 (ip), vehicle: saline, higher T/C = longer survival", "procedure": "The antitumor activity of compounds was measured in mice bearing transplantable tumors. Survival or tumor size were measured and the results are expressed as the measurement made in the treated group (T) divided by the measurement made in the vehicle treated control group (C). The tumor model used in this assay is P388 Leukemia (intraperitoneal) in B6D2F1 (BDF1) mice", "note": "The list does not hold the whole screen: it is rich in T/C values a quarter to a half above the control, in often repeated tests (any T/C) and in doses without a T/C. Other doses and runs of a compound stand elsewhere. T/C: endpoint of the treated group in % of that of the vehicle group. Some entries give survivors of the animals treated and no T/C: the source files T/C as zero there, which appears to mark a toxic dose or a test without result, not a measured value. Some doses without a T/C left all or most animals alive at the check, yet need not have been tolerated: survival well below the control is almost never listed, so the zero probably covers shortened survival too. Survivors were counted at the toxicity check, usually on the fifth day, unless a day is given; later deaths do not show. Schedules are NCI's codes, read here as Q, the interval in days (D) or hours (H), X, the number of doses. Some entries were tested several times; the results are listed from low to high."}
{"smiles": "CCC1CC(O)c2c(O)c3c(c(O)c2C1O)C(=O)c1cccc(O)c1C3=O", "note": "(centres undefined) (tested in a mixture with another compound)", "values": [{"measurement": "survivor count", "setting": "dose: 0.5 mg/kg/injection", "result": "1 of 6"}, {"measurement": "survivor count", "setting": "dose: 1.0 mg/kg/injection", "result": "3 of 6"}, {"measurement": "survivor count", "setting": "dose: 2.0 mg/kg/injection", "result": "2 of 6"}, {"measurement": "survivor count", "setting": "dose: 4.0 mg/kg/injection", "result": "3 of 6 and 5 of 6"}]}
